In article doi:10.1101/2021.04.25.441346 (bioRxiv, 2021):
No constants are given. Whether binding was seen depends on the method and setting. In cells and extracts the contact can be indirect. Binding can be weak; no strength is given. Sequences can lack the tags named with a protein.

Legend:
[1] = biological target: T1, YFP-ARF19 (AUXIN RESPONSE FACTOR 19) (Arabidopsis thaliana) (UniProt Q8RYC8); assay: co-IP
T1 sequence: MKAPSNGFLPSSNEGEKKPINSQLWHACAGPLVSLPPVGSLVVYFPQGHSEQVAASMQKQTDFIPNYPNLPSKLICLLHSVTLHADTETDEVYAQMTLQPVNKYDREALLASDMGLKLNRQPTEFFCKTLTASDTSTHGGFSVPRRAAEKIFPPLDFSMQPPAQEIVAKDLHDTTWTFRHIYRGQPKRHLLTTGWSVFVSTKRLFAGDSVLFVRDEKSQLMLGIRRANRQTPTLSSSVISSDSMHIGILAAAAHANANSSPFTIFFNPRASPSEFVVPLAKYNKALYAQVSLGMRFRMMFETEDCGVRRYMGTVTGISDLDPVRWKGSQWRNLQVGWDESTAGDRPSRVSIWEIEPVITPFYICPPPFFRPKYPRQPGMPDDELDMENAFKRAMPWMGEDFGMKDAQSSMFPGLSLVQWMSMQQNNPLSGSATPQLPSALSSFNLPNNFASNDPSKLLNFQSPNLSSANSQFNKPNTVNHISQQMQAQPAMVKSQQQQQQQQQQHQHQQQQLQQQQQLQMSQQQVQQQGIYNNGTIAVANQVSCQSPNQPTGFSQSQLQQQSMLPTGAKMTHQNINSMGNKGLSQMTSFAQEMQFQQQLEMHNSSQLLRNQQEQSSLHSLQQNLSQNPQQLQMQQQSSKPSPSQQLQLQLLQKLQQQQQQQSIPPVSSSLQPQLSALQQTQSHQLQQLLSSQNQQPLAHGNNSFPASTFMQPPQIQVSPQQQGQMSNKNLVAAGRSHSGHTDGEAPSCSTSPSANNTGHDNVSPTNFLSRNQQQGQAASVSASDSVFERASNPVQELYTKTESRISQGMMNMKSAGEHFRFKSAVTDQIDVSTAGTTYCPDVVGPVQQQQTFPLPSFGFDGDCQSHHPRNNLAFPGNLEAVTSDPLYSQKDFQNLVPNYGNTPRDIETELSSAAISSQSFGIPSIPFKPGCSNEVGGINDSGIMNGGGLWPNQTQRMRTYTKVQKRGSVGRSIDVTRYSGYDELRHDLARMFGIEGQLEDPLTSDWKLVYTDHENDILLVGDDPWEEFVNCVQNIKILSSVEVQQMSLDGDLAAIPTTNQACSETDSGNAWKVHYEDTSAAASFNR

[2] = biological target: T2, ARF7-HA (AUXIN RESPONSE FACTOR 7) (Arabidopsis thaliana) (UniProt P93022); assay: co-IP
T2 sequence: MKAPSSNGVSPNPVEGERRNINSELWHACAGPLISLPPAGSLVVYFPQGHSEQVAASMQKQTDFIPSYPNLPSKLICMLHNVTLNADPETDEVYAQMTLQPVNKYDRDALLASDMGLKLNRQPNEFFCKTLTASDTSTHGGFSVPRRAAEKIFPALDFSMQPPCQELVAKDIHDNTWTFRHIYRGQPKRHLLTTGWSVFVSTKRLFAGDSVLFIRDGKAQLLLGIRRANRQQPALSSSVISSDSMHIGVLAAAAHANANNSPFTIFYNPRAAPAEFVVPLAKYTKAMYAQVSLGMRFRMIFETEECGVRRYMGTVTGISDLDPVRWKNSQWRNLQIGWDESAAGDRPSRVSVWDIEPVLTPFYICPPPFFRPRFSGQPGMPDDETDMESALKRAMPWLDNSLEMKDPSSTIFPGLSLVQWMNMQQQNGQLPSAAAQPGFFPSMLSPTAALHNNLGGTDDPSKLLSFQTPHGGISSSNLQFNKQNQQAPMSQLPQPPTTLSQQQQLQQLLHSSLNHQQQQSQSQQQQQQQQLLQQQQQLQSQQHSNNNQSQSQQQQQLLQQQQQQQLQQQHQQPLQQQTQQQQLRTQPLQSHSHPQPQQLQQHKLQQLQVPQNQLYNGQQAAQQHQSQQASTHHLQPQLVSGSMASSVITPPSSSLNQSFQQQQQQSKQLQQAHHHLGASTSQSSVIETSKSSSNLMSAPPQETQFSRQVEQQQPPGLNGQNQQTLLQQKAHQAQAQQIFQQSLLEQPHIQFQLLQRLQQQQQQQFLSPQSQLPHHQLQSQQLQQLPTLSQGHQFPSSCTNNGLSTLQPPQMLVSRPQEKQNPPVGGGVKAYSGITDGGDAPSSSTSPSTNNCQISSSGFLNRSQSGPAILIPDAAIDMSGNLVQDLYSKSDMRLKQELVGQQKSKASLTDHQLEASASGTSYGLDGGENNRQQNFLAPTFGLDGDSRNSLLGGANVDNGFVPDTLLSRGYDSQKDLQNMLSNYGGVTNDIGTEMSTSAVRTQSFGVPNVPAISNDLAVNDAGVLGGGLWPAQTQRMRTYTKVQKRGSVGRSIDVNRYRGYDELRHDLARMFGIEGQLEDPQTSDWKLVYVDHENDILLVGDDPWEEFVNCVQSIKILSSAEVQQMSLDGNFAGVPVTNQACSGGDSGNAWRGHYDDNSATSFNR

[3] = biological target: T3, ARF19 BiFC fusion (nEYFP-ARF19 and cEYFP-ARF19) (Arabidopsis thaliana) (UniProt Q8RYC8); assay: split reporter
T3 sequence: T1 sequence

[4] = biological target: GST-ΔF-box-AFF1 (Arabidopsis thaliana); assay: pull-down

For “GST-ΔF-box-AFF1 (Arabidopsis thaliana) (domain or fragment)”, the binding [1] was “binds” and the binding [2] was “binds”.

For “nEYFP-ΔF-box-AFF1 (Arabidopsis thaliana) (domain or fragment)”, the binding [3] was “binds”.

B1: YFP-ARF19 (AUXIN RESPONSE FACTOR 19) (protein, UniProt Q8RYC8 1-1086)
chain: T1 sequence
For B1, the binding [4] was “binds”.
